These are yes or no findings as the source states them, for the method shown. In cells and extracts the contact can be indirect. Some results given as binding are weak or reduced against the parent protein; the word gives no strength.
What was measured:
[1] = target: β-catenin (human (endogenous in MG63)) (UniProt P35222); assay: co-IP; MG63 cells stably transfected (vector, pre-miR-370-3p, pre-miR-370-3p + RUVBL1; shcircMYO10, shcircMYO10 + miR-370-3p sponge or RUVBL1); RIPA lysates incubated with anti-β-catenin or anti-LEF1 at 4 °C overnight, Protein A/G agarose 2-4 h, western blot with anti-RUVBL1 from a different …
[2] = target: lymphoid enhancer factor-1 (LEF1) (human (endogenous in MG63)) (UniProt Q9UJU2); assay: as above

Protein sequences, listed by entry. Tags and fused reporters are not part of them.
UniProt P35222: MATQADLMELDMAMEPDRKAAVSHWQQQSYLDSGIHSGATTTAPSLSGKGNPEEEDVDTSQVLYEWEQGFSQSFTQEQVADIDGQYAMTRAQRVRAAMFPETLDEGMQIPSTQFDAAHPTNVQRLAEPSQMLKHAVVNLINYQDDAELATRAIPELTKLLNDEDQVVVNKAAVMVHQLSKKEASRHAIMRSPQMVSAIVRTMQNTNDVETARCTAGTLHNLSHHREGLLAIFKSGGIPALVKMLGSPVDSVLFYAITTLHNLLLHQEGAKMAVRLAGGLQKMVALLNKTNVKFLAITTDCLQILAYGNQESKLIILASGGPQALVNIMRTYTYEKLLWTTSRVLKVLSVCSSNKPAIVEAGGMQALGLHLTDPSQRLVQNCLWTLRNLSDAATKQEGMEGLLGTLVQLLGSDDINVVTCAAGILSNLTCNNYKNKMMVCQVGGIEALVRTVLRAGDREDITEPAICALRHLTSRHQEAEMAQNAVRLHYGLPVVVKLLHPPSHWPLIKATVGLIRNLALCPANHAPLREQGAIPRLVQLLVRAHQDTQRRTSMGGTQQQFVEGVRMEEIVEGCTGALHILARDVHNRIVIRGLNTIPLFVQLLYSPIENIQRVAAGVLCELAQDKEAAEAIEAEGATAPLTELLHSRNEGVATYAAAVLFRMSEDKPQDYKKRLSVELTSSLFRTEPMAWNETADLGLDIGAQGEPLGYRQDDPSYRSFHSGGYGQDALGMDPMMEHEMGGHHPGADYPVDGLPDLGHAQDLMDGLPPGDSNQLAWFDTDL
UniProt Q9UJU2: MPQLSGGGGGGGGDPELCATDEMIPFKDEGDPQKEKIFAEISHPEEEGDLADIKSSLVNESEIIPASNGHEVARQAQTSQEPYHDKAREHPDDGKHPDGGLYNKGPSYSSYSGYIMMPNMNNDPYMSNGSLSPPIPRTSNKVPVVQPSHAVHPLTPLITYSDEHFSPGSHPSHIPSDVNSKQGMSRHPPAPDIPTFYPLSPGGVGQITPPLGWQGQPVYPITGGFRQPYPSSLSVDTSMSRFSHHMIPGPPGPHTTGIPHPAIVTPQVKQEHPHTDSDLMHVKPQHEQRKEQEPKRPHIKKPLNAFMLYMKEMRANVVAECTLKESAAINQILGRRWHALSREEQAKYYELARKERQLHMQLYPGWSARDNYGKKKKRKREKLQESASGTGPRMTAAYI
UniProt Q9Y265: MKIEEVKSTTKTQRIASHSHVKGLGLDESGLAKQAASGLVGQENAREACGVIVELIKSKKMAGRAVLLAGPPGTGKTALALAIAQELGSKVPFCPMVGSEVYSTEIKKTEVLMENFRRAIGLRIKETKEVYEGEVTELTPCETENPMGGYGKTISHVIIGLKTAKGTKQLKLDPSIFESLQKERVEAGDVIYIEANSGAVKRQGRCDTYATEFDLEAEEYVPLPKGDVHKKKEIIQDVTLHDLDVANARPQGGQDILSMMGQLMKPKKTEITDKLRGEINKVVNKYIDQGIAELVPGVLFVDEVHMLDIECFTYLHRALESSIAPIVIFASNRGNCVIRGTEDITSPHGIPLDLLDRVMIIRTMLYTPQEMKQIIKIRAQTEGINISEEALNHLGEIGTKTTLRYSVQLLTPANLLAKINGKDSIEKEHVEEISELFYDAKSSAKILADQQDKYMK

In the case of RUVBL1 (from UniProt Q9Y265 1-456), the binding [1] is reported as “binds” and the binding [2] is reported as “binds”.

— publication PMC6819556
